Reference: PMC7999522
These are yes or no findings as the source states them, for the method shown. Binding seen in cells or lysates may run through a third protein. These calls come from enrichment with a bait or labelling near it, and not all partners need be listed. For part of these data: No binding means not detected with the bait.

The chains behind the UniProt entries cited, without tags or fusion partners. Residues count along the entry.
UniProt Q14152: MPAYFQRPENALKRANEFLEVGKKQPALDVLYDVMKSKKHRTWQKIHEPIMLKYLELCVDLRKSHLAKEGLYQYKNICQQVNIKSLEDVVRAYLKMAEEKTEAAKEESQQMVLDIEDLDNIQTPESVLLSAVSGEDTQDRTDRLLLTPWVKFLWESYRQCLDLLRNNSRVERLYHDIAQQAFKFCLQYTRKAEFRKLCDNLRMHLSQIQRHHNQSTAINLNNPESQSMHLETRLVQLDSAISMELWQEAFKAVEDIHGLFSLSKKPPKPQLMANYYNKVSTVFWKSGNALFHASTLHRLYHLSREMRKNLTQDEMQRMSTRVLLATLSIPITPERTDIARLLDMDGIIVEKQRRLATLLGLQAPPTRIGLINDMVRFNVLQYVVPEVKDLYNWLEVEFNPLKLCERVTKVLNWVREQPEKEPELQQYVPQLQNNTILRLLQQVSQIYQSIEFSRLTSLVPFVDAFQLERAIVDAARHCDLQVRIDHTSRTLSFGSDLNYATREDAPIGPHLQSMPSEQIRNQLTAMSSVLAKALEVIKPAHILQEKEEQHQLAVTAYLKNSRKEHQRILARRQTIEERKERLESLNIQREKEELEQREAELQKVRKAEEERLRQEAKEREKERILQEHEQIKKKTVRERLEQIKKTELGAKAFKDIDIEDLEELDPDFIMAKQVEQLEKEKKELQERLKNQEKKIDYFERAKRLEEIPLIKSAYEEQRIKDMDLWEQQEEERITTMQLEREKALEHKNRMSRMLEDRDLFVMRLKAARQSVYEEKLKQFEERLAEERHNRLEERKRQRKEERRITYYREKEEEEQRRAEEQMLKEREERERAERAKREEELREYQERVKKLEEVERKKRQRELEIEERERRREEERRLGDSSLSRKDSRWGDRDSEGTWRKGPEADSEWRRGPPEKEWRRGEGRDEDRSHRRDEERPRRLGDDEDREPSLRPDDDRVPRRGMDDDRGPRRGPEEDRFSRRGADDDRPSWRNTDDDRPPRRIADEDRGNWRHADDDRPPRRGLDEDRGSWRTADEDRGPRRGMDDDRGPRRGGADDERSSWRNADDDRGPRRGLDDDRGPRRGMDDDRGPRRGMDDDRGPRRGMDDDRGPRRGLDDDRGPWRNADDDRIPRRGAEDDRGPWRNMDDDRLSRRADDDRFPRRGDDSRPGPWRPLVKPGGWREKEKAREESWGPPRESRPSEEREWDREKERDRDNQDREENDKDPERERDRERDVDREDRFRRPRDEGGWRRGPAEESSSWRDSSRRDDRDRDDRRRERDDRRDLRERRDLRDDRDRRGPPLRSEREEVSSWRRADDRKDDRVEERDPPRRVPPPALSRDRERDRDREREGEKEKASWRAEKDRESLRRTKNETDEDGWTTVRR
UniProt Q02413, residues 50-1049: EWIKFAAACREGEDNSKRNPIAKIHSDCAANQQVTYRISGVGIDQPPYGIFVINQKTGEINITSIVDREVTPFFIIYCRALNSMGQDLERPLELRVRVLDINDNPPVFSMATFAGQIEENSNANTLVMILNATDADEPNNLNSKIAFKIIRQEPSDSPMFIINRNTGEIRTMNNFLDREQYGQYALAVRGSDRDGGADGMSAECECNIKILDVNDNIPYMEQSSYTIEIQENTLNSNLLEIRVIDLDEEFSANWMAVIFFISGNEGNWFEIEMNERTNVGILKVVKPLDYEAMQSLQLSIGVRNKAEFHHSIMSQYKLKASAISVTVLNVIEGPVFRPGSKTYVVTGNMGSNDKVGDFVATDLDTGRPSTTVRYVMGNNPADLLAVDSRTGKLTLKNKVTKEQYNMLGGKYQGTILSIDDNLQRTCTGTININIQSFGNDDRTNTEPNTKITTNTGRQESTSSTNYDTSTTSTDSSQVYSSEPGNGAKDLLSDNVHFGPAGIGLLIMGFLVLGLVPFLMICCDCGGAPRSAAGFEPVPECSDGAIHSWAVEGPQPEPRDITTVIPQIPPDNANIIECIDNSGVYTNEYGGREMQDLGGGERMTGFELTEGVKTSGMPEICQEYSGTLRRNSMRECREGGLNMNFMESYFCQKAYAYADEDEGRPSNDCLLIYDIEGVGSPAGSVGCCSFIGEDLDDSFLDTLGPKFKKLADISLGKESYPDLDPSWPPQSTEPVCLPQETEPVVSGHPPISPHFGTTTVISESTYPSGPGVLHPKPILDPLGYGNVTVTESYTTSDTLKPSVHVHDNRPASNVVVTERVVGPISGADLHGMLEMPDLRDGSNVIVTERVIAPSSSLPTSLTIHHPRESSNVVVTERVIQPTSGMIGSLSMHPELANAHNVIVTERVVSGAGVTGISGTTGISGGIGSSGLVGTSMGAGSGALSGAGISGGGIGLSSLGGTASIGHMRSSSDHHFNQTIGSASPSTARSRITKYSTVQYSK
UniProt P10809, residues 27-573: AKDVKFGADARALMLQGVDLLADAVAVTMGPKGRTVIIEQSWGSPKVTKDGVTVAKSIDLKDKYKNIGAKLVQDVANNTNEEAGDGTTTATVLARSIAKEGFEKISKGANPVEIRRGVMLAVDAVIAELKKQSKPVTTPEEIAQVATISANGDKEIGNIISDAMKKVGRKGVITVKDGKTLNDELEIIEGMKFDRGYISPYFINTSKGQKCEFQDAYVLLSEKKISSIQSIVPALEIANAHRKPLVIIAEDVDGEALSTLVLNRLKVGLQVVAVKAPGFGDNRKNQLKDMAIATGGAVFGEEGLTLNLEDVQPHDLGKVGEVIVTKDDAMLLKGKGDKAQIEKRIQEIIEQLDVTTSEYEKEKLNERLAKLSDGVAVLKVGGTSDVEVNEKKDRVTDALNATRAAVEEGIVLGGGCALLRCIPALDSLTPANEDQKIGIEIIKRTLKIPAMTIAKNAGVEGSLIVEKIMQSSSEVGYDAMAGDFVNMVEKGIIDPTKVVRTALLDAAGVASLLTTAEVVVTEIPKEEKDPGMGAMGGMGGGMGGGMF
UniProt P04792: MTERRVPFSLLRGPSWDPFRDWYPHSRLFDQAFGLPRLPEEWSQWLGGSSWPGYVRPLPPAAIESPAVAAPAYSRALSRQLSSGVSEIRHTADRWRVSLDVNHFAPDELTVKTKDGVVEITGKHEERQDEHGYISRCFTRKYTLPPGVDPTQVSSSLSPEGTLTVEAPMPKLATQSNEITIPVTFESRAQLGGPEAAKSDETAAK
UniProt P07737: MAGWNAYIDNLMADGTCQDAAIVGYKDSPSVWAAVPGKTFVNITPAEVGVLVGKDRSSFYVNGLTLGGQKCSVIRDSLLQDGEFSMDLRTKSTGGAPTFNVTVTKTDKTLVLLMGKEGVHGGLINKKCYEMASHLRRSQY
UniProt P67809: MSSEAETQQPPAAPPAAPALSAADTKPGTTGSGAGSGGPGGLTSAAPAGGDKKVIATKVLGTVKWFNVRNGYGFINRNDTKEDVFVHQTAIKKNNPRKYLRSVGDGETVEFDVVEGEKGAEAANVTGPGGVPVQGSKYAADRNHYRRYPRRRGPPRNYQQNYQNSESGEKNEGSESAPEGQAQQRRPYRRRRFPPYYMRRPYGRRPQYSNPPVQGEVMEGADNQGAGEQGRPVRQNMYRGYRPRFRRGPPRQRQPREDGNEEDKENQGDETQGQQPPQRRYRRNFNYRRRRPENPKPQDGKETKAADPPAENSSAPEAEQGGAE
UniProt Q86YZ3: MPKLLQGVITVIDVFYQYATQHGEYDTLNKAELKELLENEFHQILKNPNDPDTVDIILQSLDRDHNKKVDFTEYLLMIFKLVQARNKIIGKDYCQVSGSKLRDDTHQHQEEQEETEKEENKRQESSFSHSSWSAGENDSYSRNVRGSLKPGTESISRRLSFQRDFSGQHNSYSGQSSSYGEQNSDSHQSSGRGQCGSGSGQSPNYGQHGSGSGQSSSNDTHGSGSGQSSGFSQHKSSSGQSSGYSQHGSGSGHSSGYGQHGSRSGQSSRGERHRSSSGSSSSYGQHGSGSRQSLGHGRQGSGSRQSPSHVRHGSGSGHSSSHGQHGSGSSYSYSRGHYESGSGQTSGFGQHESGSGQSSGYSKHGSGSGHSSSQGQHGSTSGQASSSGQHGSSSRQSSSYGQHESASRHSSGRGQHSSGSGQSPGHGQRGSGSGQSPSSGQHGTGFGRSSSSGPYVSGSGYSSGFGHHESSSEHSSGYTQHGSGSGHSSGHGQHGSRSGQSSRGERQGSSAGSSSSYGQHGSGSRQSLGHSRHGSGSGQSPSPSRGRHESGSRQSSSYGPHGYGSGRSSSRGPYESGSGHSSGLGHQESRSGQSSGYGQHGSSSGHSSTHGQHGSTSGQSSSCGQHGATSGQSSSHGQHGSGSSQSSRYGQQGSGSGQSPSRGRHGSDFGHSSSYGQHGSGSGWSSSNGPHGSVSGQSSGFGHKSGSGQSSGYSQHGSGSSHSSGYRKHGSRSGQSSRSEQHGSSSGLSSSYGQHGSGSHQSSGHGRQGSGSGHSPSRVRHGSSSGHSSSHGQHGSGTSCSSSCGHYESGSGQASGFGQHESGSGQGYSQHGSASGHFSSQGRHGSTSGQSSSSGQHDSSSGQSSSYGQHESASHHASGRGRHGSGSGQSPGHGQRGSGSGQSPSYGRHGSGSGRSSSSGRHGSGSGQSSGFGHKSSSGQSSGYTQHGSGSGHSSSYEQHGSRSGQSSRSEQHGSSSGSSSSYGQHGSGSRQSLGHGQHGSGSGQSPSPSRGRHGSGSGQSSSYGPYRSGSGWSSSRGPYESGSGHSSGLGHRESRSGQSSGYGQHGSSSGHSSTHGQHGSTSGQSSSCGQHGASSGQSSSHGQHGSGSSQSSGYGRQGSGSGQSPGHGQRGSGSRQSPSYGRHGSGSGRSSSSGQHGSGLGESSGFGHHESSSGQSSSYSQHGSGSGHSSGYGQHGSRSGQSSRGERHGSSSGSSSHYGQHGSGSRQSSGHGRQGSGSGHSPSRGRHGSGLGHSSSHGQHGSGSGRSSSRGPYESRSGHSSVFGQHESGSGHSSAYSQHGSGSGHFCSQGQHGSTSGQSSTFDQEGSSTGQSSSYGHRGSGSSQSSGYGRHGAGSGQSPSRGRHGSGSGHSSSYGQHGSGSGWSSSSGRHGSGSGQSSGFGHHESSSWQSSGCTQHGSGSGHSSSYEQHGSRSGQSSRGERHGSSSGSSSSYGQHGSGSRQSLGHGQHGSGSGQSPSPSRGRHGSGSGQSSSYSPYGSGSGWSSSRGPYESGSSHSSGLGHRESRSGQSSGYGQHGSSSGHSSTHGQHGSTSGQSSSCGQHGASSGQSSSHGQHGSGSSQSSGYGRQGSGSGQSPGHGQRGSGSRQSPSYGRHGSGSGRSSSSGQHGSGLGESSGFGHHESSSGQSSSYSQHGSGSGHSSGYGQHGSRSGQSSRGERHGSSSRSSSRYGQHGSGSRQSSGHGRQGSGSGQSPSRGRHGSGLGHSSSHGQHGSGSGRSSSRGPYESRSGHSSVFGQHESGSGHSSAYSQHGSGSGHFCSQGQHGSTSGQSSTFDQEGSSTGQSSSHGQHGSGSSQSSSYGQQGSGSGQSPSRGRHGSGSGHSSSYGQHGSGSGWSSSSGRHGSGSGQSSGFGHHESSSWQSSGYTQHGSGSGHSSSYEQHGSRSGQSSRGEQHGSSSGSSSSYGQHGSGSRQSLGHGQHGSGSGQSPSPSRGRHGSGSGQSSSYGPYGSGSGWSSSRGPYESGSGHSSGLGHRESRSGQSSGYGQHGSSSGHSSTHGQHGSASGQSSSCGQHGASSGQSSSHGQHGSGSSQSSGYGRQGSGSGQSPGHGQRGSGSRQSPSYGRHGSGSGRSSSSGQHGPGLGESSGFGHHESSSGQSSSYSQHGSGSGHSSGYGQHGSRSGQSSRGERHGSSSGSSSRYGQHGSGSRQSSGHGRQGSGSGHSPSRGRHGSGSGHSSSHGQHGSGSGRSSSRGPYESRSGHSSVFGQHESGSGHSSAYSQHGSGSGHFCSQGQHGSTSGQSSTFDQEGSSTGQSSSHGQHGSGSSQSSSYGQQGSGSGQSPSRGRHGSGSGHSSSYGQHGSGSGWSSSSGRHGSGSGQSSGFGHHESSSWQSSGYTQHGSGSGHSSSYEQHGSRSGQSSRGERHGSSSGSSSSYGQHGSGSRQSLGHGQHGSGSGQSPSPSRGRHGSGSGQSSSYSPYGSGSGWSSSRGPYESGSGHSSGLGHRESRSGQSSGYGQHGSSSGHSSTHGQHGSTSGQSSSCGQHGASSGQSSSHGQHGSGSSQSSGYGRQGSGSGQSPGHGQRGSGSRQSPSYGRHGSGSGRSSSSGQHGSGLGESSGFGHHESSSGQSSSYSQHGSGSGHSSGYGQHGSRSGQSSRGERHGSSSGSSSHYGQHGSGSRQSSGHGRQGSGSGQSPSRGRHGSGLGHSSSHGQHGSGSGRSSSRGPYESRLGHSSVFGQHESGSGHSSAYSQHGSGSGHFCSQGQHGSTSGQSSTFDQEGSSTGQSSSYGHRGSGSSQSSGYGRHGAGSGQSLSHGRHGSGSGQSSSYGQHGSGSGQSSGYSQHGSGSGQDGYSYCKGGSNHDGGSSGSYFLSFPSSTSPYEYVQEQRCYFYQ

Target: myc-BirA*-eIF3A fusion protein (UniProt Q14152)
Experiment: proximity labelling; BioID as a1, but cells treated with 1 µM thapsigargin (ER stress) for 3 h before biotin for 6 h or 24 h

binding | Substance
binds | DSG1 (from UniProt Q02413 50-1049)

Target: myc-BirA*-eIF3A fusion protein (UniProt Q14152)
Experiment: condition: only cells treated with 1 µM thapsigargin; proximity labelling; BioID as a1, but cells treated with 1 µM thapsigargin (ER stress) for 3 h before biotin for 6 h or 24 h

binding | Substance
no binding | CH60 (HSPD1) (from UniProt P10809 27-573)

Target: myc-BirA*-eIF3A fusion protein (UniProt Q14152)
Experiment: proximity labelling; BioID: myc-BirA*-eIF3A against the myc-BirA* control, transiently transfected HEK-293T and HCT-116 cells, 50 µM biotin for 6 h or 24 h; RIPA lysate, streptavidin magnetic beads, washes with 8 M urea, 1% Triton, 0.5 M NaCl, 20% acetonitrile; on-bead trypsin digestion, LC-MS/MS, label-free ratio BirA*-eIF3A to BirA* above 1.5; some hits also kept in cells pre-treated with 1 µM thapsigargin

binding | Substance
binds | HSP-7C (from UniProt P11142 1-646)
binds | HSPB1 (from UniProt P04792 1-205)
binds | PROF1 (from UniProt P07737 1-140)
binds | YB-1 (from UniProt P67809 1-324)
binds | HORN (from UniProt Q86YZ3 1-2850)
binds | DDX21 (from UniProt Q9NR30 1-783)
binds | CH60 (HSPD1) (from UniProt P10809 27-573)
binds | eIF3F (from UniProt O00303 1-357)
binds | nucleophosmin (NPM1) (from UniProt P06748 1-294)
binds | 14-3-3Z (from UniProt P63104 1-245)
